Measured data: PubChem BioAssay AID1259254 (NCATS, 2017)
The whole screen tested about 59,000 reagents; shown is a part drawn at random. About 1,550 of them (2.6%) were called active. 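G2 share is only a proxy for re-replication; each gene was hit by three separate siRNAs, and active genes were retested.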 Further read-outs or replicates are left out here. Not stated in the record: the amount of reagent.

- Assay: 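Finding genes that stop cells copying their DNA twice in one cycle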 (primary screen)
- System: human HCT116 colorectal cancer cells
- Knock-down reagent: single siRNA against human genes
- Timing: 3 days
- Detection: 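Imaged Hoechst DNA stain sorts each cell into a cycle phase by DNA amount; per plate, G2 fraction set to 0% for non-targeting and 100% for GMNN siRNA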
- Direction: G2 robust z-score and G2 cells, % of GMNN control: higher = more G2 cells, more excess DNA replication
- Active means: 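An siRNA counts as active if its G2 robust z-score lies at least 5 MADs above the screen median; here such calls match roughly 38% of GMNN control or more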

IWS1 (GeneID 55677) [SID160744066] | G2 robust z-score = 0.392; G2 cells, % of GMNN control = 5.73; Outcome = inactive
IWS1 (GeneID 55677) [SID160744067] | G2 robust z-score = 0.947; G2 cells, % of GMNN control = 9.63; Outcome = inactive
IWS1 (GeneID 55677) [SID160744068] | G2 robust z-score = -1.16; G2 cells, % of GMNN control = -5.21; Outcome = inactive
SLC35E4 (GeneID 339665) [SID160764271] | G2 robust z-score = 0.417; G2 cells, % of GMNN control = 5.9; Outcome = inactive
SLC35E4 (GeneID 339665) [SID160764273] | G2 robust z-score = -0.355; G2 cells, % of GMNN control = 0.471; Outcome = inactive
SLC35E4 (GeneID 339665) [SID160764274] | G2 robust z-score = -0.745; G2 cells, % of GMNN control = -2.27; Outcome = inactive
LOC729268 (retired record) (GeneID 729268) [SID160726982] | G2 robust z-score = -0.909; G2 cells, % of GMNN control = -3.43; Outcome = inactive
LOC729268 (retired record) (GeneID 729268) [SID160772592] | G2 robust z-score = -0.675; G2 cells, % of GMNN control = -1.78; Outcome = inactive
LOC729268 (retired record) (GeneID 729268) [SID160772593] | G2 robust z-score = -0.947; G2 cells, % of GMNN control = -3.7; Outcome = inactive
TPD52L1 (GeneID 7164) [SID160718269] | G2 robust z-score = -0.226; G2 cells, % of GMNN control = 1.37; Outcome = inactive
TPD52L1 (GeneID 7164) [SID160718271] | G2 robust z-score = 1.4; G2 cells, % of GMNN control = 12.8; Outcome = inactive
TPD52L1 (GeneID 7164) [SID160734217] | G2 robust z-score = 0.545; G2 cells, % of GMNN control = 6.8; Outcome = inactive
RGS21 (GeneID 431704) [SID160767624] | G2 robust z-score = -0.441; G2 cells, % of GMNN control = -0.136; Outcome = inactive
RGS21 (GeneID 431704) [SID160767625] | G2 robust z-score = 0.963; G2 cells, % of GMNN control = 9.74; Outcome = inactive
RGS21 (GeneID 431704) [SID160767626] | G2 robust z-score = -0.274; G2 cells, % of GMNN control = 1.04; Outcome = inactive
GAL3ST4 (GeneID 79690) [SID160749199] | G2 robust z-score = 0.716; G2 cells, % of GMNN control = 8.01; Outcome = inactive
GAL3ST4 (GeneID 79690) [SID160749200] | G2 robust z-score = -0.46; G2 cells, % of GMNN control = -0.267; Outcome = inactive
GAL3ST4 (GeneID 79690) [SID160749201] | G2 robust z-score = 1.62; G2 cells, % of GMNN control = 14.4; Outcome = inactive
HIC1 (GeneID 3090) [SID160723857] | G2 robust z-score = 2.35; G2 cells, % of GMNN control = 19.5; Outcome = inactive
HIC1 (GeneID 3090) [SID160731062] | G2 robust z-score = 2.08; G2 cells, % of GMNN control = 17.6; Outcome = inactive
HIC1 (GeneID 3090) [SID160774938] | G2 robust z-score = 1.8; G2 cells, % of GMNN control = 15.6; Outcome = inactive
ZMAT5 (GeneID 55954) [SID160724475] | G2 robust z-score = 1.55; G2 cells, % of GMNN control = 13.9; Outcome = inactive
ZMAT5 (GeneID 55954) [SID160731537] | G2 robust z-score = 1.99; G2 cells, % of GMNN control = 17; Outcome = inactive
ZMAT5 (GeneID 55954) [SID160744667] | G2 robust z-score = -0.0824; G2 cells, % of GMNN control = 2.39; Outcome = inactive
